Reference: doi:10.1101/2020.07.11.196790
Results are given in words; binding and its absence hold for the method and conditions named. Binding seen in cells or lysates may run through a third protein. Some binding calls cover weakened binding; strength is not graded here.

Protein sequences, listed by entry. Tags and fused reporters are not part of them.
UniProt Q86WV6: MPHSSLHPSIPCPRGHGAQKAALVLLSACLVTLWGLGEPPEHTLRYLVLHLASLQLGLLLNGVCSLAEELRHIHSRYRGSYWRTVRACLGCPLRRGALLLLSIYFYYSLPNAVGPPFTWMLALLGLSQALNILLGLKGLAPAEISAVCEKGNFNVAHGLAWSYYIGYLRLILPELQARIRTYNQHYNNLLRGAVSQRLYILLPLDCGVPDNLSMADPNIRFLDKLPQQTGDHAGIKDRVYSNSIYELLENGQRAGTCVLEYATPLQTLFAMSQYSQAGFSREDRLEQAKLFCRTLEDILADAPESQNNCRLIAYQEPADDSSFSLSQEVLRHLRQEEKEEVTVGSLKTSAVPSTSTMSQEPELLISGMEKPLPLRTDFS
UniProt P78527: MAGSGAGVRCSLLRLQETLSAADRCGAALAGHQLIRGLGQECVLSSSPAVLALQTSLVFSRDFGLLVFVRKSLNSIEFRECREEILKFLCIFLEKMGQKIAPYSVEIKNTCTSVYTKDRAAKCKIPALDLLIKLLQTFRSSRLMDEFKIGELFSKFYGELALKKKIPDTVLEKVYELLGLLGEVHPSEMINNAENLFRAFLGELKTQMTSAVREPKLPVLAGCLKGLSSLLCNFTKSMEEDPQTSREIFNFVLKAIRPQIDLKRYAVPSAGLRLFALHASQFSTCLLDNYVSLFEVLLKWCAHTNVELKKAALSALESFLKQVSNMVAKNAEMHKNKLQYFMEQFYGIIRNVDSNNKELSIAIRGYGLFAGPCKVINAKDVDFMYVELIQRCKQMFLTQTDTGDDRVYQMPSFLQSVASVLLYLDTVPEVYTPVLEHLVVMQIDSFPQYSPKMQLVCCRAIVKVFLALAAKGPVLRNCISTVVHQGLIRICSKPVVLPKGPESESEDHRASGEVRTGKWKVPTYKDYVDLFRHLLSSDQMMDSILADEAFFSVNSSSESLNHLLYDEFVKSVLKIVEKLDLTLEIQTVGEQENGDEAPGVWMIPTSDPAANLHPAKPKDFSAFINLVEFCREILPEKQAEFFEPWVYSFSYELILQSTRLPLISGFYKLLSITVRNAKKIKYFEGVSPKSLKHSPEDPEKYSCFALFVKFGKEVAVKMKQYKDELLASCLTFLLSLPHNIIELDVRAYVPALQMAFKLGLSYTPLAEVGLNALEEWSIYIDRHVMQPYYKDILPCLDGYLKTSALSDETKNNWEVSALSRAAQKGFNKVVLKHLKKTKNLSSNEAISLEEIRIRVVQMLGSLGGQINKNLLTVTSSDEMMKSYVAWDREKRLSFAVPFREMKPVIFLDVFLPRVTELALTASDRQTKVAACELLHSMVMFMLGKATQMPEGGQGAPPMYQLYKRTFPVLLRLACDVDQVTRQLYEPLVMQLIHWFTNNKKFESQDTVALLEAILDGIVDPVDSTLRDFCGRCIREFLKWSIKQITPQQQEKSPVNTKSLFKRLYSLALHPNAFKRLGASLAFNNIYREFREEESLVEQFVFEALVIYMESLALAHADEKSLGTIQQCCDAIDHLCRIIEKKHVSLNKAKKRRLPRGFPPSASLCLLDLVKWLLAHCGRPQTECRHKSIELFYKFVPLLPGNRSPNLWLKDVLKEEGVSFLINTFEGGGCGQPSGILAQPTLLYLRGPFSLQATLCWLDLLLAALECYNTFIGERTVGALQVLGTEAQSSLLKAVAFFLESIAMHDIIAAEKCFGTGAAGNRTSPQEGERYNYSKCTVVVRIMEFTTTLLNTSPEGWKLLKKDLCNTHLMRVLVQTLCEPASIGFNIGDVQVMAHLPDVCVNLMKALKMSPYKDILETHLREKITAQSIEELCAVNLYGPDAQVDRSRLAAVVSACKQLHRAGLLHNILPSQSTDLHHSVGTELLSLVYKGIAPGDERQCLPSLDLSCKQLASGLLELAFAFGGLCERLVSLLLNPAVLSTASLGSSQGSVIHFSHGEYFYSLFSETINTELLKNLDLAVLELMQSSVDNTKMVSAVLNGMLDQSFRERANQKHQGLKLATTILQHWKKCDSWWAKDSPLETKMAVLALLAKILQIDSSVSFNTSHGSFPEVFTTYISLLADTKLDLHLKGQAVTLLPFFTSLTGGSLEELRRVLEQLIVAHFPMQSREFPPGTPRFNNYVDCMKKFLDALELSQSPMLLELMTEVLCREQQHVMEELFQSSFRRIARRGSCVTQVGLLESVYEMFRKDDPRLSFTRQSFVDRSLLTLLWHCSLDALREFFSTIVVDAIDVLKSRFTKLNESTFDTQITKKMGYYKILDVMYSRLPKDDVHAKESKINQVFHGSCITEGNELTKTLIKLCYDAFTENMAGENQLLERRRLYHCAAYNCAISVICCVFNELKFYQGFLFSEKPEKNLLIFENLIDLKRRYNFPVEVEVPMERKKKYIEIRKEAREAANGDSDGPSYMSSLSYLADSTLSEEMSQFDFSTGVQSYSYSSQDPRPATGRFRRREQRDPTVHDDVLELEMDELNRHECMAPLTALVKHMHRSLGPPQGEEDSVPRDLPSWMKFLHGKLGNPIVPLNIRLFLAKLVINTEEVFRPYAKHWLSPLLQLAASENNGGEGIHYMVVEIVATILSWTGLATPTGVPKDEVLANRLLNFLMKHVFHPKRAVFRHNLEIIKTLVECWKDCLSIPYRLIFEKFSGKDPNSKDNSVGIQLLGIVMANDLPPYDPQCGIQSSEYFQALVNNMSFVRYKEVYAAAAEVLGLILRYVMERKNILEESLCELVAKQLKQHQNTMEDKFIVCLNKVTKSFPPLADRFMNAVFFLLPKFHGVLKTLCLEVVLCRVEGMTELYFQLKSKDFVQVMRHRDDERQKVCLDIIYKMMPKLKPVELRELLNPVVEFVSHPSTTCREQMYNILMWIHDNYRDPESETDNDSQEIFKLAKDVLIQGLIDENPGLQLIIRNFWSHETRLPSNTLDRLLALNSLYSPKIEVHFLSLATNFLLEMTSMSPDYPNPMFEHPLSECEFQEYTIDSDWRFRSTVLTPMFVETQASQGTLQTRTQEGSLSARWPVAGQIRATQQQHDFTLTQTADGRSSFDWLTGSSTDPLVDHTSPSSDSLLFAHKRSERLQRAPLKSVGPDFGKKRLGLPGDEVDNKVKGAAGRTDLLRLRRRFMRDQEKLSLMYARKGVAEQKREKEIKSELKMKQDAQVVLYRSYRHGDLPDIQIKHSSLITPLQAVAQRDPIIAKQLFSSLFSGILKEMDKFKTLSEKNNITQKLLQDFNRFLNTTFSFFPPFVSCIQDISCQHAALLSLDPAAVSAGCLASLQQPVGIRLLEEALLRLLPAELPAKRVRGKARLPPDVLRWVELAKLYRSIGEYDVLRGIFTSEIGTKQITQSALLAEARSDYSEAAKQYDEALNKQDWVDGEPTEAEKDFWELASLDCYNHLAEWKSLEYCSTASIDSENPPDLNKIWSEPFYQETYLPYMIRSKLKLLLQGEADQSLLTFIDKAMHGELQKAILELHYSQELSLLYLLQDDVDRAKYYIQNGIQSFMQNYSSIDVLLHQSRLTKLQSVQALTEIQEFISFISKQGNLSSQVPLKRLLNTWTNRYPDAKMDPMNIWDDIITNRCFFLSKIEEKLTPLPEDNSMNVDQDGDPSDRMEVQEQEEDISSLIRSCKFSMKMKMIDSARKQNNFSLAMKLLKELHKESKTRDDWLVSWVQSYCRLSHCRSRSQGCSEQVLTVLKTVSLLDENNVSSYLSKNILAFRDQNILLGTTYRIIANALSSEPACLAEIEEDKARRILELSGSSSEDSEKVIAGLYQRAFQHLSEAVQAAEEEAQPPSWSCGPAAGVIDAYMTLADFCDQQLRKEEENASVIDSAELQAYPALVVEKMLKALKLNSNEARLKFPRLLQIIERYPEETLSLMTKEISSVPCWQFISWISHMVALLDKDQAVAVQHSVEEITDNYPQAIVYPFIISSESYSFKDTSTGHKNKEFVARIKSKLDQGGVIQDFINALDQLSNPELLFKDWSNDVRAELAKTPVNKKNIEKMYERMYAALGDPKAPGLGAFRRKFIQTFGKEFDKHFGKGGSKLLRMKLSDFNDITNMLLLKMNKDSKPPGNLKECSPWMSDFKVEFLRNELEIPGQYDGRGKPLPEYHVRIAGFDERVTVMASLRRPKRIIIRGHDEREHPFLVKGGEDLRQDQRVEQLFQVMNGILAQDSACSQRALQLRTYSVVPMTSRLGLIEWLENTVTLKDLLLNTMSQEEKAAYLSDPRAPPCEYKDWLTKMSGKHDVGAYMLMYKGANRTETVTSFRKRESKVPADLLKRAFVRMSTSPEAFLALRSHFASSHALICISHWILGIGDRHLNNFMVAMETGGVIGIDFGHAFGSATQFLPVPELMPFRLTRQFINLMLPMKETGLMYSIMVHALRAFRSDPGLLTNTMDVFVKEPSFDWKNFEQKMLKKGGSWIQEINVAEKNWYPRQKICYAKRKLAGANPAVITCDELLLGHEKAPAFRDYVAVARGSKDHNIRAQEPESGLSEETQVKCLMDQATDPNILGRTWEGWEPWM
UniProt P12956: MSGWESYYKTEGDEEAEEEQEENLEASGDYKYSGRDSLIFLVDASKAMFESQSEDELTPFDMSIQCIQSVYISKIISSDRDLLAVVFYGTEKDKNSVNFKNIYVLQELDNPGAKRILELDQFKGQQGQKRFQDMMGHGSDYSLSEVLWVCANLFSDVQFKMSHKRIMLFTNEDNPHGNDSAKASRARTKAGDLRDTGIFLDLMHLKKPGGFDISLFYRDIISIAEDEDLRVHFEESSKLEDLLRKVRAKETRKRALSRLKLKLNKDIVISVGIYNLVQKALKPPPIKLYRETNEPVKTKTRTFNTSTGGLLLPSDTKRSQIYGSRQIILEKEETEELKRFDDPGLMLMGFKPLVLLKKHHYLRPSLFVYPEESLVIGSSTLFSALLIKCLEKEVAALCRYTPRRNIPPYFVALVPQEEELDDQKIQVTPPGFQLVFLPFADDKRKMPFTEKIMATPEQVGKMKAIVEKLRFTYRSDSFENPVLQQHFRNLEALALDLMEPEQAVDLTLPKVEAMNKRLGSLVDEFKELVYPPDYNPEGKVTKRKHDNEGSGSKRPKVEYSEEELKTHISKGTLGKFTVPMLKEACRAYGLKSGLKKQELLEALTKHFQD
UniProt P13010: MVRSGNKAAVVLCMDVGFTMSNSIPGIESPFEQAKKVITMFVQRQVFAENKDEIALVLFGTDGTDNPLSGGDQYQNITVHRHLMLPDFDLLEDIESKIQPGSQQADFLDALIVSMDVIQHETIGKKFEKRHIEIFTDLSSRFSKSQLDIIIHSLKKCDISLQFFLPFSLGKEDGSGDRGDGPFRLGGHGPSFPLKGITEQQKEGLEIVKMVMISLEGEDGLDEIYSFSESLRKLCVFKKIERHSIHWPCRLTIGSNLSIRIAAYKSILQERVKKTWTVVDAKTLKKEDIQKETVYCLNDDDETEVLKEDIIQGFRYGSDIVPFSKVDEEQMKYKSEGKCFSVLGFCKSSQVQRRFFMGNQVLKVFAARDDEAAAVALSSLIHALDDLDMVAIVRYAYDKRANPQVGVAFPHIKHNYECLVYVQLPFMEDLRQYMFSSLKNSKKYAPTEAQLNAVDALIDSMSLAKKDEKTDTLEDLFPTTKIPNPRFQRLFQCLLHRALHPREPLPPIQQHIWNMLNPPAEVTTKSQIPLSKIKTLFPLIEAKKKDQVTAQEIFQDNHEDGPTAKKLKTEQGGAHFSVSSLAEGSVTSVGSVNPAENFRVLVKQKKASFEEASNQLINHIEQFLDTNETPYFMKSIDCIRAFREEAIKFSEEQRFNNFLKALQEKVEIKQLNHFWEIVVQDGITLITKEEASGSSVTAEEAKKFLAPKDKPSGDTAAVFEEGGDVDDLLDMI

How the values were obtained:
Test in all cases: co-IP
[1] = biological target: endogenous STING (human (endogenous in HBCx-3 and HEK293)) (UniProt Q86WV6)
[2] = biological target: untagged STING ectopically expressed in MCF7 cells (human) (UniProt Q86WV6)
[3] = biological target: DNA-PK catalytic subunit (human (endogenous in MCF7, HBCx-3 and HEK293)) (UniProt P78527)
[4] = biological target: Flag-STING-HA (Stimulator of Interferon Genes) (human) (UniProt Q86WV6)

In the case of Ku70 (from UniProt P12956 1-609), the binding [1] is reported as “binds” and the binding [2] is reported as “binds”.

With “untagged STING ectopically expressed in MCF7 cells (from UniProt Q86WV6 1-379)” the binding [3] was “binds”.

In the case of Ku80 (from UniProt P13010 1-732), the binding [1] is reported as “binds” and the binding [2] is reported as “binds”.

For “endogenous STING (from UniProt Q86WV6 1-379)”, the binding [3] was “binds”.

For “DNA-PK catalytic subunit (from UniProt P78527 1-4128)”, the binding [1] was “binds”, the binding [4] was “binds” and the binding [2] was “binds”.
